Source: PubChem BioAssay AID314 (DTP/NCI, 2004)
The list is a part of this screen's results and no random one: it covers a few groups of compounds. Not every dose and run of a compound is shown. T/C: endpoint of the treated group in % of that of the vehicle group. For survival time, the PubChem record calls one and a half times the control and up active, and a quarter to a half above the control has no call in these data; cut-offs in other NCI protocols can differ. Some T/C values are marked as having no survivor count here; that says nothing about deaths at the dose. Schedules are NCI's codes, taken here to give the interval after Q, in days (D) or hours (H), and the number of doses after X.

Test system: DBA/2 mice, P1534 leukemia ip, survival T/C
Test: NCI In Vivo Anticancer Drug Screen. Data for tumor model P1534 Leukemia (intraperitoneal) in DBA/2 mice
Details: T/C endpoint: mean survival time, schedule: Q01DX010 (ip), vehicle: saline, higher T/C = longer survival
Protocol: The antitumor activity of compounds was measured in mice bearing transplantable tumors. Survival or tumor size were measured and the results are expressed as the measurement made in the treated group (T) divided by the measurement made in the vehicle treated control group (C). The tumor model used in this assay is P1534 Leukemia (intraperitoneal) in DBA/2 mice

## CN(CCCl)CCCl
dose: 31.3 micrograms/kg/injection
  T/C: 100 % of control [survivor count not shown]
dose: 62.5 micrograms/kg/injection
  T/C: 91 % of control [survivor count not shown]
dose: 125.0 micrograms/kg/injection
  T/C: 108 % of control [survivor count not shown]
dose: 250.0 micrograms/kg/injection
  T/C: 125 % of control [survivor count not shown]
